Test results reported in patent US20040266814A1, “Imidazopyridine compounds having 5-HT4 receptor agonistic activity and 5-HT3 receptor antagonistic activity” (Pfizer Inc, priority 2003, published 2004).
Some of these results come from one statement about several compounds together.

Sequences of proteins named here, by UniProt entry; tags and fusion partners are left off. Residues count along the entry.
UniProt Q13639, 1-360 isoform Q13639-3: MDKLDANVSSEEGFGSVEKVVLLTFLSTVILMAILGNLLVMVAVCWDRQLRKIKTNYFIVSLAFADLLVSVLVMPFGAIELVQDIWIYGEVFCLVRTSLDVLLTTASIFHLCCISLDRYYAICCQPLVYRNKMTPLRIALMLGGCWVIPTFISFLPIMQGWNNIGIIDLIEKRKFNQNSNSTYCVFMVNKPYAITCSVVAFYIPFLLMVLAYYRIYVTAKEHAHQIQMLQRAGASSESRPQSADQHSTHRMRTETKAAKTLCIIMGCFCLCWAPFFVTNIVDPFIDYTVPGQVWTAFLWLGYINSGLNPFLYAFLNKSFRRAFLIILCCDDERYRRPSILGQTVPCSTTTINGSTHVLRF

Molecular target: T1, Human 5-HT4(d) transfected HEK293 cells (Homo sapiens, UniProt Q13639)
T1 construct: expressed in transfected cells; host or cells: HEK293
Test: Agonist-induced cAMP elevation in human 5-HT4(d) transfected HEK293 cells
Format: cell-based
Protocol: Agonist-Induced cAMP Elevation in Human 5-HT4(d) Transfected HEK293 Cells
Human 5-HT4(d) transfected HEK293 cells were established in-house. The cells were grown at 37° C. and 5% CO2 in DMEM supplemented with 10% FCS, 20 mM HEPES (pH 7.4), 200 μg/ml hygromycin B (Gibco), 100 units/ml penicillin and 100 μg/ml streptomycin.
The cells were grown to 60-80% confluence. On the previous day before treatment with compounds dialyzed FCS (Gibco) was substituted for normal and the cells were incubated overnight.
Compounds were prepared in 96-well plates (12.5 μl/well). The cells were harvested with PBS/1 mM EDTA, centrifuged and washed with PBS. At the beginning of the assay, cell pellet was resuspended in DMEM supplemented with 20 mM HEPES, 10 μM pargyline (Sigma) and 1 mM 3-isobutyl-1-methylxanthine (Sigma) at the concentration of 1.6×10^5 cells/ml and left for 15 minutes at room temperature. The reaction was initiated by addition of the cells into plates (12.5 μl/well). […] Homogenous time-resolved fluorescence-based cAMP (Schering) detection was made according to the manufacturer's instruction. […]
Data was analyzed based on the ratio of fluorescence intensity of each well at 620 nm and 665 nm followed by cAMP quantification using cAMP standard curve. […]

Structure (SMILES) | 5HT4 receptor agonistic activity
Cc1cn2c(N)c(Cl)cc(C(=O)NCC3CCNCC3)c2n1 [Example 1, 5-AMINO-6-CHLORO-2-METHYL-N-(PIPERIDIN-4-YLMETHYL)-IMIDAZO[1,2-a]PYRIDINE-8-CARBOXAMIDE] | showed 5HT4 receptor agonistic activity
CCc1cn2c(N)c(Cl)cc(C(=O)NCC3CCNCC3)c2n1 [Example 2, 5-AMINO-6-CHLORO-2-ETHYL-N-(PIPERIDIN-4-YLMETHYL)IMIDAZO[1,2-a]PYRIDINE-8-CARBOXAMIDE] | showed 5HT4 receptor agonistic activity
